The list shows only some results of the screen, not a fair sample: it is rich in T/C values a quarter to a half above the control, in often repeated tests (any T/C) and in doses without a T/C. Further doses and runs are listed elsewhere. T/C gives the treated animals as a percentage of the vehicle group. Some entries give survivors of the animals treated and no T/C: the source files T/C as zero there, which appears to mark a toxic dose or a test without result, not a measured value. Some survivor counts are full or nearly so, which does not show that the dose was tolerated: survival well below the control is almost never listed, so the zero probably covers shortened survival too. Survivors were counted at the toxicity check, usually on the fifth day, unless a day is given; later deaths do not show. Schedule codes are those of the source, read here as Q, the interval in days (D) or hours (H), X, the number of doses. Some entries hold several experiments; the values are given in rising order. For survival time, this PubChem deposit counts one and a half times the control or more as active, and values a quarter to a half above the control carry no call in these data; other NCI protocols may use other cut-offs. Some T/C values carry the count of animals alive at the toxicity check (mostly the fifth day); without a count, all were alive then.

The test system of the assay is P388 leukemia ip, CD2F1 mice, survival T/C. Kind of assay: NCI In Vivo Anticancer Drug Screen. Data for tumor model P388 Leukemia (intraperitoneal) in CD2F1 (CDF1) mice. The conditions noted are these: T/C endpoint: median survival time, higher T/C = longer survival.
[1] abbreviates: dose: 50.0 mg/kg/injection, schedule: Q01DX009 (ip), vehicle: saline.
Setting [2] is: dose: 200.0 mg/kg/injection, schedule: Q04DX003 (ip), vehicle: saline with Tween-80.
[3] abbreviates: dose: 100.0 mg/kg/injection, schedule: Q01DX009 (ip), vehicle: saline.
Setting [4] is: dose: 100.0 mg/kg/injection, schedule: Q01DX005 (ip), vehicle: Klucel (hydroxypropylcellulose) (HPC).
[5] abbreviates: dose: 200.0 mg/kg/injection, schedule: Q01DX005 (ip), vehicle: Klucel (hydroxypropylcellulose) (HPC).
Where [6] appears, read: dose: 50.0 mg/kg/injection, schedule: Q01DX009 (ip), vehicle: Klucel (hydroxypropylcellulose) (HPC).
The mark [7] stands for this setting: dose: 200.0 mg/kg/injection, schedule: Q01DX009 (ip), vehicle: Klucel (hydroxypropylcellulose) (HPC).
The mark [8] stands for this setting: dose: 200.0 mg/kg/injection, schedule: Q01DX009 (ip), vehicle: saline.
Where [9] appears, read: dose: 240.0 mg/kg/injection, schedule: Q01DX005 (ip), vehicle: saline with Tween-80.
Where [10] appears, read: dose: 200.0 mg/kg/injection, schedule: Q01DX009 (ip), vehicle: saline with Tween-80.

As for `O=[N+]([O-])[O-].OCCNCCNCC[OH2+].OCCNCCNCC[OH2+].[Ni+2]`, the survivor count (dose: 25.0 mg/kg/injection, schedule: Q01DX009 (ip), vehicle: saline) is 6 of 6 and the survivor count under setting [1] is given as 6 of 6.
For `C/C(N)=C\C#N`, the survivor count runs as follows: under setting [2], 0 of 6; (dose: 400.0 mg/kg/injection, schedule: Q04DX003 (ip), vehicle: saline with Tween-80) 0 of 6.
Take `C[N+]1(CC(=O)O)C2CCC1CC(O)C2` (stereo not given): the T/C under setting [3] is 138 % of control.
Regarding `CC(/C=C/c1ccccc1)=N\NC(=O)c1ccccc1`, the T/C is 100, 103, 108, 120 % of control (dose: 50.0 mg/kg/injection, schedule: Q01DX005 (ip), vehicle: Klucel (hydroxypropylcellulose) (HPC)) and 127 % of control [5 of 6 alive] under setting [4]. Further, the survivor count under setting [4] is 5 of 6; the survivor count under setting [5] was 0 of 6 and 3 of 6.
Take `COC(=O)Nc1cccc(-c2nc3ccc(NC(=O)OC)cc3c(=O)n2-c2ccccc2)c1`: the survivor count was 2 of 6 and 3 of 6 (dose: 32.0 mg/kg/injection, schedule: Q01DX005 (oral), vehicle: Klucel (hydroxypropylcellulose) (HPC)); 5 of 6 under setting [6]; 2 of 6 and 3 of 6 (dose: 64.0 mg/kg/injection, schedule: Q01DX005 (oral), vehicle: Klucel (hydroxypropylcellulose) (HPC)); 2 of 6 (dose: 100.0 mg/kg/injection, schedule: Q01DX009 (ip), vehicle: Klucel (hydroxypropylcellulose) (HPC)); 1 of 6 and 3 of 6 (dose: 128.0 mg/kg/injection, schedule: Q01DX005 (oral), vehicle: Klucel (hydroxypropylcellulose) (HPC)); 2 of 6 under setting [7]. Besides, the survivor count reads like this: under setting [8], 4 of 6; (dose: 256.0 mg/kg/injection, schedule: Q01DX005 (oral), vehicle: Klucel (hydroxypropylcellulose) (HPC)) 2 of 6; (dose: 400.0 mg/kg/injection, schedule: Q01DX009 (ip), vehicle: saline) 5 of 6; (dose: 512.0 mg/kg/injection, schedule: Q01DX005 (oral), vehicle: Klucel (hydroxypropylcellulose) (HPC)) 0 of 6; (dose: 1024.0 mg/kg/injection, schedule: Q01DX005 (oral), vehicle: Klucel (hydroxypropylcellulose) (HPC)) 2 of 6. The T/C was 130 % of control under setting [1]; 144 % of control (dose: 64.0 mg/kg/injection, schedule: Q01DX005 (oral), vehicle: saline); 146 % of control [5 of 6 alive] (dose: 100.0 mg/kg/injection, schedule: Q01DX009 (oral), vehicle: Klucel (hydroxypropylcellulose) (HPC)).
As for `O=C1Nc2ccccc2/C1=N/N=C/c1ccc(Cl)cc1Cl`, the survivor count under setting [6] is listed as 6 of 6.
With `Cc1cccc(-c2nc(=S)nc(N)s2)c1`, the survivor count (dose: 400.0 mg/kg/injection, schedule: Q01DX001 (ip), vehicle: saline with Tween-80) is 0 of 6.
Regarding `O=C1C=C(O/C=C/C(C(F)(F)F)C(F)(F)F)C(=O)c2ccccc21`, where the note is “dose: 33.0 mg/kg/injection, schedule: Q01DX009 (ip), vehicle: saline with Tween-80”, the T/C was 125 % of control. The survivor count by setting is: (dose: 75.0 mg/kg/injection, schedule: Q01DX009 (ip), vehicle: saline with Tween-80) 2 of 6; under setting [2], 3 of 6.
For the molecule `COc1nc2[nH]c(C)cc(=O)c2c2ccccc12`, the survivor count under setting [9] is recorded as 6 of 6.
Turning to `O=C(NCCCl)N1CCC(CN=c2cc3n(-c4ccc(Cl)cc4)c4ccccc4nc-3cc2Nc2ccc(Cl)cc2)CC1`, the survivor count (dose: 30.0 mg/kg/injection, schedule: Q01DX005 (ip), vehicle: saline with Tween-80) is recorded as 6 of 6 and the survivor count (dose: 60.0 mg/kg/injection, schedule: Q01DX005 (ip), vehicle: saline with Tween-80) is 6 of 6.
Take `CCCCCCCCCCC[N+]1(CC)CCCC1`: the survivor count by setting is: (dose: 0.19 mg/kg/injection, schedule: Q01DX009 (ip), vehicle: saline) 6 of 6; (dose: 3.12 mg/kg/injection, schedule: Q01DX009 (ip), vehicle: saline) 5 of 6; (dose: 6.25 mg/kg/injection, schedule: Q01DX009 (ip), vehicle: saline) 3 of 6; (dose: 12.5 mg/kg/injection, schedule: Q01DX009 (ip), vehicle: saline) 6 of 6; under setting [1], 0 of 6; under setting [3], 0 of 6. Further, under setting [8], the survivor count is reported as 0 of 6.
As for `Nc1nn(-c2ccc(Br)cc2)c2cccc[n+]12`, the survivor count reads like this: (dose: 100.0 mg/kg/injection, schedule: Q01DX009 (ip), vehicle: other) 5 of 6; (dose: 100.0 mg/kg/injection, schedule: Q01DX009 (ip), vehicle: saline with Tween-80) 1 of 6; (dose: 200.0 mg/kg/injection, schedule: Q01DX009 (ip), vehicle: other) 1 of 6; under setting [10], 0 of 6; (dose: 400.0 mg/kg/injection, schedule: Q01DX009 (ip), vehicle: other) 0 of 6.
Consider `O=C(Nc1ccc(C2=NCCN2)cc1)c1cc2ccc(C3=NCCN3)cc2[nH]1`, for which the survivor count is on record as 3 of 6 (dose: 100.0 mg/kg/injection, schedule: Q04DX003 (ip), vehicle: suspension in saline); 3 of 6 (dose: 200.0 mg/kg/injection, schedule: Q04DX003 (ip), vehicle: suspension in saline); 0 of 6 (dose: 400.0 mg/kg/injection, schedule: Q04DX003 (ip), vehicle: suspension in saline).
On to `CC12CC3CC(C)(C1)CC(SCCN)(C3)C2`, for which the survivor count under setting [9] is 4 of 6.
Take `CCSc1nc2ccc(N=Cc3ccc(NS(=O)(=O)c4ccccc4)cc3O)cc2s1`: under setting [7], the survivor count was 3 of 6.
As for `CC1(C)NC2Cc3c([nH]c4ccccc34)C3(C)CCC1CC23` (stereo not given), the survivor count under setting [5] is reported as 0 of 5.
Turning to `O=C1c2ccccc2C(O)(C#Cc2ccccc2)c2c1oc1c2ccc2ccccc21` (stereo not given), the survivor count is recorded as 6 of 6 (dose: 50.0 mg/kg/injection, schedule: Q01DX009 (ip), vehicle: saline with Tween-80) and 6 of 6 under setting [10].
Take `CC(=O)OC1C=C(C=O)C(O)(C=O)C2(C)CCCC(C)(C)C12` (stereo not given): the survivor count is, setting by setting: (dose: 6.25 mg/kg/injection, schedule: Q01DX009 (ip), vehicle: other) 1 of 6; (dose: 12.5 mg/kg/injection, schedule: Q01DX009 (ip), vehicle: other) 1 of 6; (dose: 25.0 mg/kg/injection, schedule: Q01DX009 (ip), vehicle: other) 0 of 6.
On to `COc1cc2ccc3c4cc(OC)c(OC)cc4c[n+](C)c3c2cc1O`, for which, where the note is “dose: 200.0 mg/kg/injection, schedule: Q04DX009 (ip), vehicle: Klucel (hydroxypropylcellulose) (HPC)”, the T/C was 136 % of control [2 of 3 alive].

The values above are taken from PubChem BioAssay AID330 (DTP/NCI, 2004).
